Data from the supplement of paper PMC8616043.
Several values for one entry are separate records, joined by “and”; a condition that tells them apart may be missing. Equal values may be shown once. Where a name gives a salt, the structure may show the parent alone. Some of the results follow. Repeats in this data set agree poorly, so a single value says little.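 The cells are human U-2 OS cells that stably carry a GFP sensor with a nuclear import signal and a classical export signal. They were transfected to make PR50, a 50-repeat proline–arginine dipeptide protein from the ALS/FTD gene C9ORF72. Each well's nuclear-minus-cytoplasm GFP signal was scaled from in-plate DMSO (low) to PR-only wells (high), then scored against the other test wells on the plate; compounds scoring well below zero were called hits that reverse the PR effect.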

The compounds below were run on U-2 OS NCT-C biosensor cells expressing PR50 (assay: Z-score of normalised NCT-C biosensor translocation index in PR50-expressing cells; higher = more nuclear biosensor (more disrupted nuclear export)). Settings: 3 µM; 24 h.
For `Cn1ccc2cc(NC(=O)Nc3cccnc3)ccc21`, the Z-score was inactive: -0.1.
With `O=c1oc2ccccc2c(O)c1Cc1c(O)c2ccccc2oc1=O` [Dicoumarol] the Z-score was inactive: -0.876.
In the case of `CC(=O)[C@]1(O)Cc2c(O)c3c(c(O)c2[C@@H](O[C@H]2C[C@H](N)[C@H](O)[C@H](C)O2)C1)C(=O)c1ccccc1C3=O` [Idarubicin hydrochloride], the Z-score is reported as inactive: 0.295.
With `Nc1nc(=S)c2[nH]cnc2[nH]1` [6-Thioguanine] the Z-score was inactive: -1.03.
In the case of `CC(/C=C1\SC(=S)N(CC(=O)O)C1=O)=C\c1ccccc1` [Epalrestat], the Z-score is reported as inactive: -0.238.
In the case of `CCCOc1ccn2c(C(C)=O)cc(-c3ccccc3S(C)(=O)=O)c2c1`, the Z-score is reported as inactive: -0.281.
In the case of `CN1CCN(CCCN2c3ccccc3Sc3ccc(Cl)cc32)CC1` [Prochlorperazine dimaleate], the Z-score is reported as inactive: 0.21.
`CC(=O)OCC(CCn1cnc2cnc(N)nc21)COC(C)=O` [Famciclovir] was tested, and the Z-score was inactive: -0.0403.
With `COc1ccc([C@@H]2CC(=O)c3c(O)cc(O[C@@H]4O[C@H](CO)[C@@H](O)[C@H](O)[C@H]4O[C@@H]4O[C@@H](C)[C@H](O)[C@@H](O)[C@H]4O)cc3O2)cc1O` [Neohesperidin] the Z-score was inactive: 0.217.
With `NNc1nncc2ccccc12` [Hydralazine] the Z-score was inactive: -1.32.
With `NNc1nncc2ccccc12` [Hydralazine HCl] the Z-score was inactive: -0.115.
With `NNc1nncc2ccccc12` [Hydralazine·HCl] the Z-score was inactive: 0.147.
With `O=C(/C=C/c1ccc(O)c(O)c1)OCCc1ccccc1` [Caffeic acid phenethyl ester] the Z-score was inactive: -0.765.
For `C[C@H](CCC(=O)O)[C@H]1CC[C@H]2[C@@H]3[C@H](O)C[C@@H]4C[C@H](O)CC[C@]4(C)[C@H]3CC[C@]12C` [Chenodiol (Chenodeoxycholic Acid)], the Z-score was inactive: 0.311.
In the case of `CC[C@H](C)C(=O)O[C@H]1CCC=C2C=C[C@H](C)[C@H](CC[C@@H]3C[C@@H](O)CC(=O)O3)[C@H]21` [Mevastatin], the Z-score is reported as inactive: -0.595.
For `COc1c2occc2c(OC)c2c(=O)cc(C)oc12` [Khellin], the Z-score was inactive: 0.0222.
In the case of `CCC(C)N(C)C(=O)c1cc2ccccc2c(-c2ccccc2Cl)n1` (stereo unspecified), the Z-score is reported as inactive: 2.86.
In the case of `Nc1nc2ccc(Cl)cc2c2nc(-c3ccco3)nn12`, the Z-score is reported as inactive: 0.161.
With `COc1cc2c(c(OC)c1OC)-c1ccc(OC)c(=O)cc1[C@@H](NC=O)CC2` [N-Formyl-Deacetylcolchicine] the Z-score was inactive: -0.52.
For `CCOC(=O)Nc1cc(-c2ccc(C)c(NS(C)(=O)=O)c2)nn2c(C)nnc12` [Bromosporine], the Z-score was inactive: -0.717.
For `C/C=C(/C)C(=O)O[C@H]1CC(C)=CC(=O)[C@@]2(C)CC[C@@](O)(C(C)C)[C@H]12` [Lapidin], the Z-score was inactive: -0.0842.
`O=C(NCCO)c1cccc(-c2cc(Nc3ccc(OC(F)(F)F)cc3)ncn2)c1` was tested, and the Z-score was inactive: 0.188.
`Nc1ncnc2c1c(-c1ccc(Oc3ccccc3)cc1)cn2C1CCCC1` was tested, and the Z-score was inactive: -0.504.
In the case of `c1cc(SSc2ccns2)sn1`, the Z-score is reported as inactive: -1.63.
`C[C@@H]1O[C@@H](O[C@H]2[C@H](Oc3cc(O)c4c(=O)cc(-c5ccc(O)cc5)oc4c3)O[C@H](CO)[C@@H](O)[C@@H]2O)[C@H](O)[C@H](O)[C@H]1O` [Rhoifolin] was tested, and the Z-score was inactive: -0.365.
For `O=C(O)[C@H]1NCCC[C@H]1C(=O)O` (relative stereo) [cis-Piperidine-2,3- dicarboxylic acid], the Z-score was inactive: -0.423.
With `CC(C)CCC[C@@H](C)[C@H]1CC[C@H]2[C@@H]3C[C@@H](NCCCNCCCCNCCCN)C4C[C@@H](O)CC[C@]4(C)[C@H]3CC[C@]12C` (stereo partly specified) [Claramine trifluoroacetate salt] the Z-score was inactive: -0.24.
For `COc1cc(/C=C(\C#N)C(=O)Nc2nnc(C(F)(F)F)s2)ccc1OCc1ccc(C(F)(F)F)cc1C(F)(F)F`, the Z-score was inactive: -0.868.
For `O=[N+]([O-])c1cccc2cn[nH]c12` [7-Nitroindazole], the Z-score was inactive: -0.255.
In the case of `COc1ccccc1OCC(O)CN1CCN(CC(=O)Nc2c(C)cccc2C)CC1` (stereo unspecified) [Ranolazine·2HCl], the Z-score is reported as inactive: -0.193.
`COc1ccccc1OCC(O)CN1CCN(CC(=O)Nc2c(C)cccc2C)CC1` (stereo unspecified) [Ranolazine dihydrochloride] was tested, and the Z-score was inactive: -0.768.
With `COc1cc([C@@H]2c3cc4c(cc3[C@@H](O[C@@H]3O[C@@H]5CO[C@@H](C)O[C@H]5[C@H](O)[C@H]3O)[C@H]3COC(=O)[C@H]23)OCO4)cc(OC)c1O` [Etoposide] the Z-score was inactive: 1.34.
In the case of `CCCNCC(O)COc1ccccc1C(=O)CCc1ccccc1` (stereo unspecified) [Propafenone·HCl], the Z-score is reported as inactive: 3.36.
`CCCNCC(O)COc1ccccc1C(=O)CCc1ccccc1` (stereo unspecified) [Propafenone hydrochloride] was tested, and the Z-score was inactive: -0.216.
`C[C@H]1C[C@@H]2[C@H]([C@@H](O)C[C@@]3(C)[C@H]2CC[C@]3(O)C(=O)CO)[C@@]2(C)C=CC(=O)C=C12` [Methylprednisolone] was tested, and the Z-score was inactive: 0.376.
With `CC(=O)O[C@]1(C(C)=O)CC[C@H]2[C@@H]3C[C@H](C)C4=CC(=O)CC[C@]4(C)[C@H]3CC[C@@]21C` [Medroxyprogesterone Acetate] the Z-score was inactive: 0.0816.
With `COc1cc2c(cc1-c1c(C)noc1C)ncc1[nH]c(=O)n([C@H](C)c3ccccn3)c12` the Z-score was inactive: 1.51 and inactive: 6.12.
With `CN(C)c1nc(N(C)C)nc(N(C)C)n1` [Altretamine] the Z-score was inactive: 0.415.
`N[C@H](C(=O)O)[C@H](O)c1ccc(O)c(O)c1` was tested, and the Z-score was inactive: -0.846.
In the case of `N=C(N)NCCCC[C@@H]1NC(=O)CCSSC[C@@H](C(N)=O)NC(=O)[C@@H]2CCCN2C(=O)[C@H](Cc2c[nH]c3ccccc23)NC(=O)[C@H](CC(=O)O)NC(=O)CNC1=O` [Eptifibatide], the Z-score is reported as inactive: 0.426.
With `CCOC(=O)Oc1c(OC)cc(C(=O)O[C@@H]2C[C@@H]3CN4CCc5c([nH]c6cc(OC)ccc56)[C@H]4C[C@@H]3[C@H](C(=O)OC)[C@H]2OC)cc1OC` [Syrosingopine] the Z-score was inactive: 0.0665.
